# Whole data set: some 33,000 sequences, median “E-score (-0.5 to 0.5)” near -0.0059, cut for the highest 2% near 0.26. The list shows a part of the results.
# Target: T1, Cin5 (UniProt P40917)
# T1 sequence: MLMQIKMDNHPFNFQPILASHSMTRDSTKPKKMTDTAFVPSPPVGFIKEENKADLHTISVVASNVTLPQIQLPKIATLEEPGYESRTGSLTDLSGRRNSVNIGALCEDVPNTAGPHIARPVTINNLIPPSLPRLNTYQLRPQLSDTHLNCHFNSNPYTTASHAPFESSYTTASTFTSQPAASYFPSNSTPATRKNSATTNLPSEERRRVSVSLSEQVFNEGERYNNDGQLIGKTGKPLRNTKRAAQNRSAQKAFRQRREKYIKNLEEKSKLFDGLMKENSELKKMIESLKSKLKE
# Test: PBM E-score (8-mer binding enrichment) (E-score (-0.5 to 0.5)); higher = stronger / more preferred TF binding
# Conditions: protein concentration: 100 nM; construct: GST-full length
# Procedure, shortened: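 Full-length yeast transcription factors or their DNA-binding domains, GST-tagged and expressed with PURExpress, were applied at about 100-200 nM to universal all-10-mer Agilent arrays. These arrays had been made double-stranded by primer extension on fresh or once-stripped slides. Detection used fluorescent anti-GST, normalisation used masliner, and E-scores for ungapped eight-base words pooled with reverse complements came from the Universal PBM Analysis Suite.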
row,Sequence,PBM E-score
1,CAAGAAAA,0.114
2,AGTCACCG,-0.195
3,AGAAACCC,-0.0645
4,AGCAGCCA,0.0323
5,TAATGTAA,0.33
6,GACTTGAA,-0.109
7,CCCTGAAG,-0.132
8,CAACTACA,0.167
9,CCCTGGGA,-0.328
10,GCCAGCCA,-0.193
11,ATGTACCA,0.00112
12,CGGTGGAC,-0.104
13,GACATGGA,0.0278
14,CCTGGAGA,-0.184
15,CCTCCTCC,-0.278
16,GATGTGAC,-0.0723
17,CACTCGAG,-0.094
18,GATCGATC,0.0112
19,CCTTGTAC,-0.093
20,CCCCATAC,0.0266
21,AGCTCAGG,-0.0925
22,AGTTTTGG,0.0675
23,GTGACCTA,-0.0621
24,CGTGGTAG,-0.0737
25,AAATCCGA,0.0419

row,Sequence,PBM E-score
1,CGCTGATC,0.157
2,CCAAGGTC,-0.0444
3,GCGGTCTA,0.0342
4,AGCAATTG,0.106
5,ACGCAGCT,-0.12
6,GGAACCAC,-0.0344
7,CATCCAGG,-0.134
8,CACTATAA,-0.0724
9,ATATACTC,0.209
10,AAGCCGGC,0.168
11,AGCGTATA,0.158
12,AGGGCATC,-0.195
13,CATGCGTA,0.145
14,TGCACGCA,-0.149
15,CCAAGAAA,0.0846
16,AATACTAA,0.208
17,GGTAGGAA,-0.0518
18,ATCAAAAT,-0.0169
19,AACGTTCA,-0.124
20,TAACCGAA,-0.106
21,ATCTGATC,0.0996
22,CCGTCGCC,-0.0908
23,GGTGAATA,0.119
24,AAACAGAC,0.22
25,ACGGACTA,-0.0462

row,Sequence,PBM E-score
1,CGCTTAAG,-0.0869
2,ATAGCTGG,-0.0708
3,AGGGGCGG,-0.059
4,ACCTAGCG,-0.0233
5,CAATAGGG,0.045
6,CGAGTCCC,-0.058
7,ACATTGTC,0.236
8,AAACCCAC,0.116
9,CCGCTGTC,-0.0743
10,CACGTAAG,0.288
11,AAGCCTGC,-0.0381
12,TATACCGA,0.102
13,CCAGCAAA,0.163
14,ATTGACAA,0.0993
15,AAATACTA,0.112
16,AAATTTGC,0.0332
17,GTCTGGTA,-0.0727
18,GGCTCGAA,-0.0888
19,TCTACCCA,0.0615
20,GATGAAGC,-0.0138
21,GAGGACCC,-0.14
22,ATAATCAG,0.285
23,CATGGGTA,-0.109
24,CGTATGAC,0.0189
25,AAAAATTC,0.13

# An excerpt of these results, bar-delimited:
row | Sequence | PBM E-score
15 | AAATACTA | 0.112
17 | GTCTGGTA | -0.0727
18 | GGCTCGAA | -0.0888

# The list continues.

row,Sequence,PBM E-score
1,ACACGTTA,-0.0689
2,AAAAGCAC,-0.188
3,ACCATAGC,0.00966
4,TAACAACA,0.179
5,CTTGTTGC,-0.0415
6,ATTAGCCG,0.0336
7,CACGTGCG,-0.142
8,CACCTCCA,-0.0922
9,ATGTAGAC,-0.131
10,ATAGTTAG,0.14
11,TAGGATGA,0.162
12,GTATTGTA,0.274
13,AGCTCTAA,0.00448
14,CTCAAGAG,-0.238
15,CACTAATA,0.158
16,AGACACCT,-0.048
17,AGCATGCA,0.0296
18,CCTTACCG,-0.12
19,ATATTGTA,0.151
20,CACACGGA,-0.0731
21,GGGCTACC,-0.226
22,CTGCGACA,0.0959
23,ATAGTACG,0.182
24,CAATGATC,-0.0322
25,ATTGGACA,0.17

row,Sequence,PBM E-score
1,AAGCCAAG,-0.06
2,CATCGATG,0.0124
3,ATACCAGG,-0.0244
4,AGATTAAC,0.0211
5,CCACGGGC,-0.182
6,AGTTTGAA,0.0821
7,CTCTCAGC,-0.237
8,CCCGCTCG,-0.134
9,ACAATTGA,0.212
10,ACGCAGAA,0.157
11,GTTTAAGA,-0.218
12,ACCGCAGC,-0.141
13,AGACTGCA,-0.166
14,AGCAGGTC,-0.052
15,CCAGGATC,-0.138
16,ATCACTCG,0.146
17,AGCTGCAG,-0.00408
18,CCTAAAGG,-0.28
19,GTTTTAGA,-0.146
20,CATCTGTC,0.0521
21,CCAGTCCA,-0.208
22,CCCAAATC,-0.123
23,AACAGGAA,0.0285
24,ATGTTAGA,-0.0834
25,CTATTATA,0.142

row,Sequence,PBM E-score
1,GGAGCGCC,-0.272
2,CCTCCGAC,-0.35
3,CCACTACC,-0.155
4,CCCGAGCC,-0.173
5,CTAACACA,0.064
6,GCTCCTTA,-0.122
7,TCGCCCCA,0.0796
8,AACTACGA,-0.0317
9,AAGCACTA,0.0886
10,CACTAGGA,-0.2
11,TATTGGCA,0.175
12,GTAGATTA,0.232
13,CTAGACAC,-0.0244
14,ATAGGCTA,-0.119
15,CCTAATTC,-0.0431
16,TGCAGGAA,0.148
17,AAAAACCG,0.0407
18,AAGACGGA,0.047
19,CTCGACCC,-0.157
20,TATCTGAA,0.015
21,ATAGGAGC,-0.157
22,AATTTCGA,0.0153
23,GAAGAGAA,-0.0163
24,CTCTTTGC,0.0175
25,AACAGTTC,0.164

row,Sequence,PBM E-score
1,GTTAACAA,0.17
2,ACCTCTAC,0.0319
3,GGACCCCA,0.0267
4,CGGTGCAG,-0.199
5,GAGAGGTA,-0.154
6,CAACTTTC,0.205
7,CGTAACCC,0.126
8,AATACTTC,0.121
9,ACATCGTC,0.0282
10,CATTGTCC,0.117
11,GCGCCAAA,-0.0164
12,GTCGCACA,-0.107
13,GCCTCCGC,-0.203
14,CCTCGGAC,-0.0927
15,ACTCGACG,0.182
16,GCCGTCCC,-0.0504
17,CCGATTAA,0.117
18,CATATGGG,0.196
19,CAAATCAC,0.00887
20,AGATGCCT,-0.145
21,AGTAAACG,0.00145
22,CGATGAAA,0.0992

# Some values from the list:
# PBM E-score with CGGTGCAG is entered as -0.199
# PBM E-score with GTTAACAA is entered as 0.17
